No constants are given. Whether binding was seen depends on the method and setting. Binding seen in cells or lysates may run through a third protein.
How the values were obtained:
GFP-Rab11 (human) = experiment: co-IP
GFP-Rab1 (human) = experiment: co-IP

B1: EspG:4xHA (protein, UniProt Q7DB50 1-381)
chain: MINGLNNDSASLVLDAAMKVNSGFKKSWDEMSCAEKLFKVLSFGLWNPTYSRSERQSFQELLTVLEPVYPLPNELGRVSARFSDGSSLRISVTNSELVEAEIRTANNEKITVLLESNEQNRLLQSLPIDRHMPYIQVHRALSEMDLTDTTSMRNLLGFTSKLSTTLIPHNAQTDPLSGPTPFSSIFMDTCRGLGNAKLSLNGVDIPANAQKLLRDALGLKDTHSSPTRNVIDHGISRHDAEQIARESSGSDKQKAEVVEFLCHPEAATAICSAFYQSFNVPALTLTHERISKASEYNAERSLDTPNACINISISQSSDGNIYVTSHTGVLIMAPEDRPNEMGMLTNRTSYEVPQGVKCIIDEMVSALQPRYAASETYLQNT
- binding (GFP-Rab11 (human)): no binding
- binding (GFP-Rab1 (human)): no binding

Source: PMC5013874
